Laboratory results: PubChem BioAssay AID1259405 (NCATS, 2018)

Test: 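Silenced genes that increase secreted GFP made by CHO cells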 (primary screen)
System: Chinese hamster CHO-K1 ovary cells with stable secreted eGFP expression
Reagent: single siRNA against mouse genes, 0.8 pmol siRNA per well (2 µl of 400 nM stock)
Time to read-out: 3 days
Read-out: 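Per-well intracellular GFP measured by laser scanning cytometry, plus viability from ATP luminescence, each relative to plate median of non-targeting control wells, in %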
Scale: GFP, % of control: higher = more GFP per well, higher productivity; viability (ATP), % of control: higher = more viable cells (more ATP)
Hit rule: 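a knock-down is called active if GFP reaches 120% or more of non-targeting control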
The deposit covers about 50,000 reagents; below is a part drawn at random. About 4,000 of them (8%) were called active. 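Mouse siRNA library applied to hamster cells; one well for each siRNA.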 Unmarked entries are inactive. The numbers tell different reagents against one gene apart.

| Target gene | reagent no. | GFP, % of control | viability (ATP), % of control |
| --- | --- | --- | --- |
| Dtx3 | 1 | 88.2 | 73 |
| Dtx3 | 2 | 78.9 | 97.7 |
| Yod1 | 1 | 89.6 | 89.1 |
| Yod1 | 2 | 105 | 46.6 |
| Yod1 | 3 | 74.4 | 93.3 |
| Hapln1 | 1 | 26.7 | 33.7 |
| Hapln1 | 2 | 74.4 | 48 |
| Hapln1 | 3 | 59.3 | 68.4 |
| Gpr37l1 | 1 | 100 | 88.3 |
| Gpr37l1 | 2 | 83.8 | 69.5 |
| Gpr37l1 | 3 | 78.1 | 80 |
| Arhgap28 | 1 | 79.2 | 81 |
| Arhgap28 | 2 | 95.9 | 68.6 |
| Arhgap28 | 3 | 46.9 | 66.3 |
| Pym1 | 1 | 20.5 | 23.8 |
| Pym1 | 2 | 71 | 56.6 |
| Pym1 | 3 | 135 (active) | 112 |
| Tas2r113 | 1 | 44.1 | 53.1 |
| Tas2r113 | 2 | 81 | 89.5 |
| Tas2r113 | 3 | 65.2 | 84.5 |
| Hoxc11 | 1 | 105 | 93.7 |
| Hoxc11 | 2 | 102 | 116 |
| Hoxc11 | 3 | 67.2 | 77.4 |
| Tex13a | 1 | 90.6 | 30.4 |
| Tex13a | 2 | 153 (active) | 107 |
| Tex13a | 3 | 84 | 85.1 |
| Cenps | 1 | 37.2 | 39.9 |
| Cenps | 2 | 155 (active) | 55.1 |
| Cenps | 3 | 66.3 | 73.2 |
| Btbd35f1 | 1 | 92.2 | 81.4 |
| Btbd35f1 | 2 | 53.7 | 68.5 |
| Btbd35f1 | 3 | 77.2 | 98.8 |
| Siah1b | 1 | 57.3 | 36.6 |
| Siah1b | 2 | 105 | 75.4 |
| Siah1b | 3 | 56.5 | 62.8 |
| Gng2 | 1 | 113 | 92.7 |
| Gng2 | 2 | 82.3 | 95.3 |
| Gng2 | 3 | 74.1 | 68.3 |
| Kcnj2 | 1 | 122 (active) | 60 |
| Kcnj2 | 2 | 30.1 | 35.4 |
| Kcnj2 | 3 | 72.9 | 78.8 |
| Or13a27 | 1 | 113 | 61.7 |
| Or13a27 | 2 | 105 | 75.4 |
| Or13a27 | 3 | 59.3 | 79.5 |
| Arhgef15 | 1 | 76.8 | 33 |
| Arhgef15 | 2 | 75.4 | 83.3 |
| Arhgef15 | 3 | 44.5 | 65.3 |
| Scnn1a | 1 | 133 (active) | 106 |
| Scnn1a | 2 | 54.3 | 32.6 |
| Scnn1a | 3 | 42.5 | 76 |

Reformatted: results already given
Target gene | reagent no. | GFP, % of control | viability (ATP), % of control
Cenps | 3 | 66.3 | 73.2
Btbd35f1 | 1 | 92.2 | 81.4
Btbd35f1 | 2 | 53.7 | 68.5
Btbd35f1 | 3 | 77.2 | 98.8
Siah1b | 1 | 57.3 | 36.6
Siah1b | 2 | 105 | 75.4
Siah1b | 3 | 56.5 | 62.8

More records follow.
| Target gene | reagent no. | GFP, % of control | viability (ATP), % of control |
| --- | --- | --- | --- |
| Rnf8 | 1 | 51.5 | 73.2 |
| Rnf8 | 2 | 35.6 | 38.8 |
| Rnf8 | 3 | 53.9 | 72.7 |
| Stat5b | 1 | 48.3 | 66 |
| Stat5b | 2 | 57.3 | 68.3 |
| Stat5b | 3 | 56 | 76.1 |
| Bpifb2 | 1 | 85.3 | 125 |
| Bpifb2 | 2 | 70.6 | 80.1 |
| AY702103 | 1 | 69.2 | 72.9 |
| AY702103 | 2 | 55.5 | 57.2 |
| AY702103 | 3 | 83.1 | 51.1 |
| Ciapin1 | 1 | 86.9 | 85 |
| Ciapin1 | 2 | 86.6 | 67.1 |
| Ciapin1 | 3 | 102 | 97.9 |
| Epm2a | 1 | 58.7 | 59.8 |
| Epm2a | 2 | 55.5 | 75.8 |
| Epm2a | 3 | 62.6 | 82.3 |
| Prg2 | 1 | 41.5 | 25.3 |
| Prg2 | 2 | 82.6 | 83.6 |
| Prg2 | 3 | 106 | 96.5 |
| Arpc1b | 1 | 34.5 | 43 |
| Arpc1b | 2 | 75.7 | 67.5 |
| Arpc1b | 3 | 49 | 77.3 |
| Shfl | 1 | 85.5 | 79.9 |
| Shfl | 2 | 96.8 | 63.6 |
| Shfl | 3 | 55.2 | 82.6 |
| Zfp870 | 1 | 58.4 | 46.7 |
| Zfp870 | 2 | 62.7 | 63.2 |
| Zfp870 | 3 | 74.4 | 108 |
| B230317F23Rik | 1 | 71.2 | 62.9 |
| B230317F23Rik | 2 | 74.1 | 101 |
| B230317F23Rik | 3 | 97.5 | 72.9 |
| Irx3 | 1 | 66.8 | 77.9 |
| Irx3 | 2 | 76.7 | 75.1 |
| Irx3 | 3 | 108 | 106 |
